Data taken from patent publication US20220074941A1, “HSP90 COMBINATION THERAPY” (Sloan-Kettering Institute for Cancer Research, priority 2011, published 2022).

Tested on: Hsp90 complexes in K562 cell extract
Test: Nano-LC-MS/MS of PU-beads pull-downs
Type: binding
Conditions: for Matched Peptides by Fraction JA04 / Matched Peptides by Fraction JA03 / Matched Peptides by Fraction JA11 / Matched Peptides by Fraction JA10 / MAXIMUM matched peptides: PU-beads pull-down; for Matched Peptides by Fraction JA04: Run1, gel size cut 80-110; for Matched Peptides by Fraction JA03: Run1, gel size cut 110-150; for Matched Peptides by Fraction JA11: Run2, gel size cut 80-110; for Matched Peptides by Fraction JA10: Run2, gel size cut 110-150; for MAXIMUM matched peptides: maximum over fractions JA01-JA14; for Total fmol: protein isolated in PU-beads pull-downs, Waters Xevo QTof MS
In short: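 Lysates pre-cleared overnight at 4 °C with control beads, then pulled down with PU-beads or control beads; eluted proteins (2% SDS boil) gel-separated and analysed by nano LC-MS/MS on a QTof. Mascot identification (p<0.05), spectral counts and sequence coverage evaluated in Scaffold.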

Row | Molecule | Matched Peptides by Fraction JA04 | Matched Peptides by Fraction JA03 | Matched Peptides by Fraction JA11 | Matched Peptides by Fraction JA10 | MAXIMUM matched peptides | Total fmol [fmol]
1 | Interleukin enhancer-binding factor 3; ILF3 (protein, UniProt Q12906 1-894, looked up) Interleukin enhancer-binding …: MRPMRIFVNDDRHVMAKHSSVYPTQEELEAVQNMVSHTERALKAVSDWIDEQEKGSSEQAESDNMDVPPEDDSKEGAGEQKTEHMTRTLRGVMRVGLVAKGLLLKGDLDLELVLLCKEKPTTALLDKVADNLAIQLAAVTEDKYEILQSVDDAAIVIKNTKEPPLSLTIHLTSPVVREEMEKVLAGETLSVNDPPDVLDRQKCLAALASLRHAKWFQARANGLKSCVIVIRVLRDLCTRVPTWGPLRGWPLELLCEKSIGTANRPMGAGEALRRVLECLASGIVMPDGSGIYDPCEKEATDAIGHLDRQQREDITQSAQHALRLAAFGQLHKVLGMDPLPSKMPKKPKNENPVDYTVQIPPSTTYAITPMKRPMEEDGEEKSPSKKKKKIQKKEEKAEPPQAMNALMRLNQLKPGLQYKLVSQTGPVHAPIFTMSVEVDGNSFEASGPSKKTAKLHVAVKVLQDMGLPTGAEGRDSSKGEDSAEETEAKPAVVAPAPVVEAVSTPSAAFPSDATAEQGPILTKHGKNPVMELNEKRRGLKYELISETGGSHDKRFVMEVEVDGQKFQGAGSNKKVAKAYAALAALEKLFPDTPLALDANKKKRAPVPVRGGPKFAAKPHNPGFGMGGPMHNEVPPPPNLRGRGRGGSIRGRGRGRGFGGANHGGYMNAGAGYGSYGYGGNSATAGYSQFYSNGGHSGNASGGGGGGGGGSSGYGSYYQGDNYNSPVPPKHAGKKQPHGGQQKPSYGSGYQSHQGQQQSYNQSPYSNYGPPQGKQKGYNHGQGSYSYSNSYNSPGGGGGSDYNYESKFNYSGSGGRSGGNSYGSGGASYNPGSHGGYGGGSGGGSSYQGKQGGYSQSNYNSPGSGQNYSGPPSSYQSSQGGYGRNADHSMNYQYR | 20 | 9 | 21 | 9 | 21 | 16.2442
2 | Arf-GAP with coiled-coil, ANK repeat and PH domain-containing protein 2 (protein, UniProt Q15057 1-778, looked up) Arf-GAP with coiled-coil, ANK …: MKMTVDFEECLKDSPRFRAALEEVEGDVAELELKLDKLVKLCIAMIDTGKAFCVANKQFMNGIRDLAQYSSNDAVVETSLTKFSDSLQEMINFHTILFDQTQRSIKAQLQNFVKEDLRKFKDAKKQFEKVSEEKENALVKNAQVQRNKQHEVEEATNILTATRKCFRHIALDYVLQINVLQSKRRSEILKSMLSFMYAHLAFFHQGYDLFSELGPYMKDLGAQLDRLVVDAAKEKREMEQKHSTIQQKDFSSDDSKLEYNVDAANGIVMEGYLFKRASNAFKTWNRRWFSIQNNQLVYQKKFKDNPTVVVEDLRLCTVKHCEDIERRFCFEVVSPTKSCMLQADSEKLRQAWIKAVQTSIATAYREKGDESEKLDKKSSPSTGSLDSGNESKEKLLKGESALQRVQCIPGNASCCDCGLADPRWASINLGITLCIECSGIHRSLGVHFSKVRSLTLDTWEPELLKLMCELGNDVINRVYEANVEKMGIKKPQPGQRQEKEAYIRAKYVERKFVDKYSISLSPPEQQKKFVSKSSEEKRLSISKFGPGDQVRASAQSSVRSNDSGIQQSSDDGRESLPSTVSANSLYEPEGERQDSSMFLDSKHLNPGLQLYRASYEKNLPKMAEALAHGADVNWANSEENKATPLIQAVLGGSLVTCEFLLQNGANVNQRDVQGRGPLHHATVLGHTGQVCLFLKRGANQHATDEEGKDPLSIAVEAANADIVTLLRLARMNEEMRESEGLYGQPGDETYQDIFRDFSQMASNNPEKLNRFQQDSQKF | 18 |  | 22 |  | 22 | 4.8244
3 | Serine/threonine-protein kinase Nek9 (protein, UniProt Q8TD19 2-979, looked up) Serine/threonine-protein …: SVLGEYERHCDSINSDFGSESGGCGDSSPGPSASQGPRAGGGAAEQEELHYIPIRVLGRGAFGEATLYRRTEDDSLVVWKEVDLTRLSEKERRDALNEIVILALLQHDNIIAYYNHFMDNTTLLIELEYCNGGNLYDKILRQKDKLFEEEMVVWYLFQIVSAVSCIHKAGILHRDIKTLNIFLTKANLIKLGDYGLAKKLNSEYSMAETLVGTPYYMSPELCQGVKYNFKSDIWAVGCVIFELLTLKRTFDATNPLNLCVKIVQGIRAMEVDSSQYSLELIQMVHSCLDQDPEQRPTADELLDRPLLRKRRREMEEKVTLLNAPTKRPRSSTVTEAPIAVVTSRTSEVYVWGGGKSTPQKLDVIKSGCSARQVCAGNTHFAVVTVEKELYTWVNMQGGTKLHGQLGHGDKASYRQPKHVEKLQGKAIRQVSCGDDFTVCVTDEGQLYAFGSDYYGCMGVDKVAGPEVLEPMQLNFFLSNPVEQVSCGDNHVVVLTRNKEVYSWGCGEYGRLGLDSEEDYYTPQKVDVPKALIIVAVQCGCDGTFLLTQSGKVLACGLNEFNKLGLNQCMSGIINHEAYHEVPYTTSFTLAKQLSFYKIRTIAPGKTHTAAIDERGRLLTFGCNKCGQLGVGNYKKRLGINLLGGPLGGKQVIRVSCGDEFTIAATDDNHIFAWGNGGNGRLAMTPTERPHGSDICTSWPRPIFGSLHHVPDLSCRGWHTILIVEKVLNSKTIRSNSSGLSIGTVFQSSSPGGGGGGGGGEEEDSQQESETPDPSGGFRGTMEADRGMEGLISPTEAMGNSNGASSSCPGWLRKELENAEFIPMPDSPSPLSAAFSESEKDTLPYEELQGLKVASEAPLEHKPQVEASSPRLNPAVTCAGKGTPLTPPACACSSLQVEVERLQGLVLKCLAEQQKLQQENLQIFTQLQKLNKKLEGGQQVGMHSKGTQTAKEEMEMDPKPDLDSDSWCLLGTDSCRPSL |  | 5 |  | 11 | 11 | 5.5558
4 | Inhibitor of nuclear factor kappa-B kinase subunit alpha (protein, UniProt O15111 1-745, looked up) Inhibitor of nuclear factor …: MERPPGLRPGAGGPWEMRERLGTGGFGNVCLYQHRELDLKIAIKSCRLELSTKNRERWCHEIQIMKKLNHANVVKACDVPEELNILIHDVPLLAMEYCSGGDLRKLLNKPENCCGLKESQILSLLSDIGSGIRYLHENKIIHRDLKPENIVLQDVGGKIIHKIIDLGYAKDVDQGSLCTSFVGTLQYLAPELFENKPYTATVDYWSFGTMVFECIAGYRPFLHHLQPFTWHEKIKKKDPKCIFACEEMSGEVRFSSHLPQPNSLCSLVVEPMENWLQLMLNWDPQQRGGPVDLTLKQPRCFVLMDHILNLKIVHILNMTSAKIISFLLPPDESLHSLQSRIERETGINTGSQELLSETGISLDPRKPASQCVLDGVRGCDSYMVYLFDKSKTVYEGPFASRSLSDCVNYIVQDSKIQLPIIQLRKVWAEAVHYVSGLKEDYSRLFQGQRAAMLSLLRYNANLTKMKNTLISASQQLKAKLEFFHKSIQLDLERYSEQMTYGISSEKMLKAWKEMEEKAIHYAEVGVIGYLEDQIMSLHAEIMELQKSPYGRRQGDLMESLEQRAIDLYKQLKHRPSDHSYSDSTEMVKIIVHTVQSQDRVLKELFGHLSKLLGCKQKIIDLLPKVEVALSNIKEADNTVMFMQGKRQKEIWHLLKIACTQSSARSLVGSSLEGAVTPQTSAWLPPTSAEHDHSLSCVVTPQDGETSAQMIEENLNCLGHLSTIIHEANEEQGNSMMNLDWSWLTE | 16 |  |  |  | 16 | 2.1707
